Source: patent US12281060B2, “Remodilins for airway remodeling and organ fibrosis” (The University of Chicago, priority 2019, dated 2025)
Some entries share one result that the patent states for a list of compounds. At least one compound was matched to its structure with a doubt left.

Test: Plasma pharmacokinetics and tissue distribution (liver, lung, thyroid) after single oral doses
Format: in vivo
Details: male C57Bl/6 mice; for time for which lung concentration stays at or above 3 μM: after single oral dose of 10 or 50 mg/kg; for lung concentrations: after single oral doses of 10 or 50 mg/kg
Procedure: Studies were performed to characterize plasma pharmacokinetics (PK) and tissue distribution (liver, lung, thyroid) of 5 potential lead candidates in male C57Bl/6 mice receiving single oral doses of 10 mg/kg or 50 mg/kg.

SMILES	time for which lung concentration stays at or above 3 μM [h]	lung concentrations [µM]
O=C(Nc1ccc(S(=O)(=O)N2CCCC2)cc1)c1ccc(Br)c(I)c1 [remodilin 50, 4-Bromo-3-iodo-N-(4-(pyrrolidin-1-ylsulfonyl)phenyl)benzamide]	≥ 8	≥ 3
COc1ccc(C(=O)Nc2ccc(S(=O)(=O)N3CCCCC3C)cc2)cc1I (stereo not shown) [remodilin 39, 3-Iodo-4-methoxy-N-(4-((2-methylpiperidin-1-yl)sulfonyl)phenyl) benzamide]	≥ 8	≥ 3
